In publication PMC1919423:
Results are given in words; binding and its absence hold for the method and conditions named. Some binding calls cover weakened binding; strength is not graded here.

Chains of the proteins cited; added tags and fusions are not shown. Residues count along the entry.
UniProt P63165, residues 1-97: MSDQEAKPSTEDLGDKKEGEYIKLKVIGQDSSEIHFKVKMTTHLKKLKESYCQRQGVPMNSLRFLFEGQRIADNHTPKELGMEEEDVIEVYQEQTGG
UniProt P05161, residues 1-157: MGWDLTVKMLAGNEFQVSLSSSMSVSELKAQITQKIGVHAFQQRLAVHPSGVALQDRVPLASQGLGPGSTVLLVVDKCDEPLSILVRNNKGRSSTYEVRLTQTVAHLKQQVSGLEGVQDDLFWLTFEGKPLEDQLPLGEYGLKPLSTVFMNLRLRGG

Columns and labels:
[1] = molecular target: SUMO1-vinylmethyl ester (human) (UniProt P63165); experiment: covalent labelling with active-site directed probes (adduct seen as mobility shift in SDS-PAGE, fluorography); IVT products (RNase B treated) incubated with saturating amounts of the individual probes (0.2–0.4 µg/10 µl IVT lysate); in Figure 4 also with increasing concentrations of purified human 26S proteasomes; only the target purified
[2] = molecular target: ISG15-vinyl sulfone (human) (UniProt P05161); experiment: as above

- binding [1]: binds
- binding [2]: no binding
B1: SUMO protease SENP2 (enzyme, UniProt Q9HC62 1-589)
chain: MYRWLVRILGTIFRFCDRSVPPARALLKRRRSDSTLFSTVDTDEIPAKRPRLDCFIHQVKNSLYNAASLFGFPFQLTTKPMVTSACNGTRNVAPSGEVFSNSSSCELTGSGSWNNMLKLGNKSPNGISDYPKIRVTVTRDQPRRVLPSFGFTLNSEGCNRRPGGRRHSKGNPESSLMWKPQEQAVTEMISEESGKGLRRPHCTVEEGVQKEEREKYRKLLERLKESGHGNSVCPVTSNYHSSQRSQMDTLKTKGWGEEQNHGVKTTQFVPKQYRLVETRGPLCSLRSEKRCSKGKITDTETMVGIRFENESRRGYQLEPDLSEEVSARLRLGSGSNGLLRRKVSIIETKEKNCSGKERDRRTDDLLELTEDMEKEISNALGHGPQDEILSSAFKLRITRGDIQTLKNYHWLNDEVINFYMNLLVERNKKQGYPALHVFSTFFYPKLKSGGYQAVKRWTKGVNLFEQEIILVPIHRKVHWSLVVIDLRKKCLKYLDSMGQKGHRICEILLQYLQDESKTKRNSDLNLLEWTHHSMKPHEIPQQLNGSDCGMFTCKYADYISRDKPITFTQHQMPLFRKKMVWEILHQQLL
